According to the supplement of paper PMC11732987, “Enantioselective OTUD7B fragment discovery through chemoproteomics screening and high-throughput optimisation” (Communications Chemistry, 2025):
The other results are listed elsewhere or left out. The data scatter; read single values as rough.

Compound: ClCC(=O)N[C@H]1CCCc2ccccc12
Experiment: log2 mean competition ratio of IA-DTB cysteine labelling (DMSO/compound) (log2 ratio); higher = stronger cysteine engagement by compound
Settings: 50 µM; treatment time: 4 h; cell line lysate: HEK293T
Method: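 IA-DTB competitive cysteine chemoproteomics in HEK293T RIPA lysate. Lysates were treated with compound 29 or 30 at 50 or 200 µM for 4 h, then IA-DTB (500 µM, 1 h), trypsin-digested, NeutrAvidin-enriched and analysed by diaPASEF. Competition ratio = intensity DMSO / intensity compound (n=4 treated, n=64 DMSO); binding: mean log2 CR ≥ 1 and p ≤ 0.05 plus QC filters. Target is the cysteine site.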

Target | log2 mean competition ratio
JRK C428 (UniProt O75564) | -0.0332
KIF14 C1418 (UniProt Q15058) | -0.0799
KIF11 C43 (UniProt P52732) | 0.00301
KEAP1 C288 (UniProt Q14145) | -0.132
JCAD C722 | -0.212
KIF20A C43 (UniProt O95235) | -0.263
IST1 C125 (UniProt P53990) | 0.644
ISCA2 C79 (UniProt Q86U28) | 0.572
KIF2C C287 (UniProt Q99661) | 0.146
KIF20A C809 (UniProt O95235) | 0.455
KIF11 C911 (UniProt P52732) | -0.176
KAT14 C547 (UniProt Q9H8E8) | 0.273
KIF1A C609 | 0.223
KDM3A C467 (UniProt Q9Y4C1) | -0.0992
KDM8 C164 (UniProt Q8N371) | 0.0752
JTB C85 (UniProt O76095) | -0.0833
KIF11 C740 (UniProt P52732) | -0.584
ISCU C130 (UniProt Q9H1K1) | 0.759
KCTD20 C327 (UniProt Q7Z5Y7) | -0.318
ITPK1 C156 (UniProt Q13572) | -0.168

Same assay, conditions: 200 µM; treatment time: 4 h; cell line lysate: HEK293T

Target | log2 mean competition ratio
JRK C428 (UniProt O75564) | 0.149
KIF14 C1418 (UniProt Q15058) | 0.0246
KIF11 C43 (UniProt P52732) | -0.066
KEAP1 C288 (UniProt Q14145) | 0.376
JCAD C722 | -0.161
KIF20A C43 (UniProt O95235) | -0.345
IST1 C125 (UniProt P53990) | 0.06
ISCA2 C79 (UniProt Q86U28) | -0.174
KIF2C C287 (UniProt Q99661) | 0.0282
KIF20A C809 (UniProt O95235) | 0.26
KIF11 C911 (UniProt P52732) | -0.264
KAT14 C547 (UniProt Q9H8E8) | 0.217
KIF1A C609 | -0.0596
KDM3A C467 (UniProt Q9Y4C1) | -0.061
KDM8 C164 (UniProt Q8N371) | 0.0835
JTB C85 (UniProt O76095) | 0.131
KIF11 C740 (UniProt P52732) | 0.0521
ISCU C130 (UniProt Q9H1K1) | 0.0931
KCTD20 C327 (UniProt Q7Z5Y7) | -0.0969
ITPK1 C156 (UniProt Q13572) | 0.327
